Laboratory results published in the supplement of paper PMC8728848.
Some of the results follow.

Tests used:
Assay in all cases: glycan array binding signal (z-score within array); higher = stronger binding
Details in all cases: glycan notation: IUPAC condensed, linker removed
[1] = biological target: Neu5Ac(a2-3)Gal(b1-3)GalNAc
Outline: (§1)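 Columns mapping to the same glycan were averaged after glycan names were converted to IUPAC-condensed notation. The data come from 3228 arrays in the Consortium for Functional Glycomics database, limited to those with an available protein sequence. Binding is reported as a within-array Z-score averaged across arrays of one protein sequence and across linkers.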

[2] = biological target: Neu5Ac(a2-3)Gal(b1-3)GalNAc(b1-3)Gal(a1-4)Gal(b1-4)Glc
Outline: as §1

[3] = biological target: Neu5Ac(a2-3)Gal(b1-3)GalNAc(b1-4)[Neu5Ac(a2-3)]Gal(b1-4)Glc
Outline: as §1

[4] = biological target: Neu5Ac(a2-3)Gal(b1-3)GalNAc(b1-4)[Neu5Ac(a2-8)Neu5Ac(a2-3)]Gal(b1-4)Glc
Outline: as §1

[5] = biological target: Neu5Ac(a2-3)Gal(b1-3)GalNAc6S
Outline: as §1

[6] = biological target: Neu5Ac(a2-3)Gal(b1-3)GlcNAc
Outline: as §1

[7] = biological target: Neu5Ac(a2-3)Gal(b1-3)GlcNAc(b1-2)Man
Outline: as §1

[8] = biological target: Neu5Ac(a2-3)Gal(b1-3)GlcNAc(b1-2)Man(a1-3)[GlcNAc(b1-4)][Neu5Ac(a2-3)Gal(b1-3)GlcNAc(b1-2)Man(a1-6)]Man(b1-4)GlcNAc(b1-4)GlcNAc
Outline: as §1

[9] = biological target: Neu5Ac(a2-3)Gal(b1-3)GlcNAc(b1-2)Man(a1-3)[Neu5Ac(a2-3)Gal(b1-3)GlcNAc(b1-2)Man(a1-6)]Man(b1-4)GlcNAc(b1-4)GlcNAc
Outline: as §1

[10] = biological target: Neu5Ac(a2-3)Gal(b1-3)GlcNAc(b1-3)Gal(b1-3)GlcNAc
Outline: as §1

[11] = biological target: Neu5Ac(a2-3)Gal(b1-3)GlcNAc(b1-3)Gal(b1-4)GlcNAc
Outline: as §1

[12] = biological target: Neu5Ac(a2-3)Gal(b1-3)GlcNAc(b1-3)GalNAc
Outline: as §1

[13] = biological target: Neu5Ac(a2-3)Gal(b1-3)GlcNAc(b1-4)Gal(b1-4)Glc
Outline: as §1

[14] = biological target: Neu5Ac(a2-3)Gal(b1-3)GlcNAc(b1-6)GalNAc
Outline: as §1

[15] = biological target: Neu5Ac(a2-3)Gal(b1-3)GlcNAc6S
Outline: as §1

[16] = biological target: Neu5Ac(a2-3)Gal(b1-3)[Fuc(a1-4)]GlcNAc
Outline: as §1

[17] = biological target: Neu5Ac(a2-3)Gal(b1-3)[Fuc(a1-4)]GlcNAc(b1-3)Gal(b1-3)[Fuc(a1-4)]GlcNAc
Outline: as §1

[18] = biological target: Neu5Ac(a2-3)Gal(b1-3)[Fuc(a1-4)]GlcNAc(b1-3)Gal(b1-4)[Fuc(a1-3)]GlcNAc
Outline: as §1

[19] = biological target: Neu5Ac(a2-3)Gal(b1-3)[GlcNAc(b1-6)]GalNAc
Outline: as §1

[20] = biological target: Neu5Ac(a2-3)Gal(b1-3)[Neu5Ac(a2-6)]GalNAc
Outline: as §1

[21] = biological target: Neu5Ac(a2-3)Gal(b1-3)[Neu5Ac(a2-6)]GlcNAc(b1-3)[Fuc(a1-3)[Gal(b1-4)]GlcNAc(b1-6)]Gal(b1-4)Glc
Outline: as §1

[22] = biological target: Neu5Ac(a2-3)Gal(b1-3)]Neu5Ac(a2-3)Gal(b1-4)]GlcNAc
Outline: as §1

[23] = biological target: Neu5Ac(a2-3)Gal(b1-4)Glc
Outline: as §1

[24] = biological target: Neu5Ac(a2-3)Gal(b1-4)GlcNAc
Outline: as §1

[25] = biological target: Neu5Ac(a2-3)Gal(b1-4)GlcNAc(b1-2)Man
Outline: as §1

[26] = biological target: Neu5Ac(a2-3)Gal(b1-4)GlcNAc(b1-2)Man(a1-3)[GlcNAc(b1-4)][Neu5Ac(a2-3)Gal(b1-4)GlcNAc(b1-2)Man(a1-6)]Man(b1-4)GlcNAc(b1-4)GlcNAc
Outline: as §1

[27] = biological target: Neu5Ac(a2-3)Gal(b1-4)GlcNAc(b1-2)Man(a1-3)[Neu5Ac(a2-3)Gal(b1-4)GlcNAc(b1-2)Man(a1-6)]Man(b1-4)GlcNAc(b1-4)GlcNAc
Outline: as §1

[28] = biological target: Neu5Ac(a2-3)Gal(b1-4)GlcNAc(b1-2)Man(a1-3)[Neu5Ac(a2-3)Gal(b1-4)GlcNAc(b1-2)Man(a1-6)]Man(b1-4)GlcNAc(b1-4)[Fuc(a1-6)]GlcNAc
Outline: as §1

[29] = biological target: Neu5Ac(a2-3)Gal(b1-4)GlcNAc(b1-2)Man(a1-3)[Neu5Ac(a2-6)Gal(b1-4)GlcNAc(b1-2)Man(a1-6)]Man(b1-4)GlcNAc(b1-4)GlcNAc
Outline: as §1

[30] = biological target: Neu5Ac(a2-3)Gal(b1-4)GlcNAc(b1-2)[Neu5Ac(a2-3)Gal(b1-4)GlcNAc(b1-4)]Man(a1-3)[GlcNAc(b1-4)][Neu5Ac(a2-3)Gal(b1-4)GlcNAc(b1-2)[Neu5Ac(a2-3)Gal(b1-4)GlcNAc(b1-6)]Man(a1-6)]Man(b1-4)GlcNAc(b1-4)GlcNAc
Outline: as §1

[31] = biological target: Neu5Ac(a2-3)Gal(b1-4)GlcNAc(b1-2)[Neu5Ac(a2-3)Gal(b1-4)GlcNAc(b1-4)]Man(a1-3)[GlcNAc(b1-4)][Neu5Ac(a2-3)Gal(b1-4)GlcNAc(b1-4)Man(a1-6)]Man(b1-4)GlcNAc(b1-4)GlcNAc
Outline: as §1

[32] = biological target: Neu5Ac(a2-3)Gal(b1-4)GlcNAc(b1-2)[Neu5Ac(a2-3)Gal(b1-4)GlcNAc(b1-6)]Man(a1-6)[Neu5Ac(a2-3)Gal(b1-4)GlcNAc(b1-2)Man(a1-3)]Man(b1-4)GlcNAc(b1-4)GlcNAc
Outline: as §1

[33] = biological target: Neu5Ac(a2-3)Gal(b1-4)GlcNAc(b1-2)[Neu5Ac(a2-3)Gal(b1-4)GlcNAc(b1-6)]Man(a1-6)[Neu5Ac(a2-3)Gal(b1-4)GlcNAc(b1-2)Man(a1-3)][GlcNAc(b1-4)]Man(b1-4)GlcNAc(b1-4)GlcNAc
Outline: as §1

[34] = biological target: Neu5Ac(a2-3)Gal(b1-4)GlcNAc(b1-3)Gal
Outline: as §1

[35] = biological target: Neu5Ac(a2-3)Gal(b1-4)GlcNAc(b1-3)Gal(b1-3)GlcNAc
Outline: as §1

[36] = biological target: Neu5Ac(a2-3)Gal(b1-4)GlcNAc(b1-3)Gal(b1-4)GlcNAc
Outline: as §1

[37] = biological target: Neu5Ac(a2-3)Gal(b1-4)GlcNAc(b1-3)Gal(b1-4)GlcNAc(b1-2)Man(a1-3)[Neu5Ac(a2-3)Gal(b1-4)GlcNAc(b1-3)Gal(b1-4)GlcNAc(b1-2)Man(a1-6)]Man(b1-4)GlcNAc(b1-4)GlcNAc
Outline: as §1

B1: Sp8391B-bot-388-20-388 (Bacteroides ovatus) (protein)
chain: GCQNNDENEQHYDNKLFISASNFTKEILFKAGDTNVETGLSVAIAKPEEHDIKVTMSPAPELLSTYKLAYYDETAVLLSEEHYSMPETSTTIKSGSIVSPELPIEFINTGELDIKTTYVLPVTIKSVEGIGVLQSAKTYYYVFRGASLINVVCNISRNRAYPDFKNDSKFNNLTENTMEILFKANSFPNTLNTLMGIESNYLLRIGDATIPNNQLQVATSVNNCTSADLQLESGKWYHVAVAFNKGNVKVYINGVEKLSGSTGKSSVSLGAKHTNEEDGSRCFWVGYSYKDDRYFDGVVSEVRIWNRALTAEEIQATNHFYTIEPESEGLIAYWKFDEGSGTVAKDYSVSGYDLTIEKEPKWESVSLPQ
Q: What does the source list for B1?
A: glycan array binding signal (z-score) [1]: -0.722; glycan array binding signal (z-score) [2]: -0.286; glycan array binding signal (z-score) [3]: -0.636; glycan array binding signal (z-score) [4]: -0.412; glycan array binding signal (z-score) [5]: -0.665; glycan array binding signal (z-score) [6]: -0.213; glycan array binding signal (z-score) [7]: -0.633; glycan array binding signal (z-score) [8]: -0.652; glycan array binding signal (z-score) [9]: -0.686; glycan array binding signal (z-score) [10]: -0.939; glycan array binding signal (z-score) [11]: 0.081; glycan array binding signal (z-score) [12]: 0.193; glycan array binding signal (z-score) [13]: -0.577; glycan array binding signal (z-score) [14]: -0.896; glycan array binding signal (z-score) [15]: 1.4; glycan array binding signal (z-score) [16]: 0.453; glycan array binding signal (z-score) [17]: 0.339; glycan array binding signal (z-score) [18]: -0.611; glycan array binding signal (z-score) [19]: -0.315; glycan array binding signal (z-score) [20]: -0.652; glycan array binding signal (z-score) [21]: -1.12; glycan array binding signal (z-score) [22]: -0.275; glycan array binding signal (z-score) [23]: -0.356; glycan array binding signal (z-score) [24]: -0.47; glycan array binding signal (z-score) [25]: -0.285; glycan array binding signal (z-score) [26]: -0.384; glycan array binding signal (z-score) [27]: -0.533; glycan array binding signal (z-score) [28]: -0.812; glycan array binding signal (z-score) [29]: -0.28; glycan array binding signal (z-score) [30]: -0.47; glycan array binding signal (z-score) [31]: -0.92; glycan array binding signal (z-score) [32]: 0.918; glycan array binding signal (z-score) [33]: 0.676; glycan array binding signal (z-score) [34]: -0.707; glycan array binding signal (z-score) [35]: -0.674; glycan array binding signal (z-score) [36]: -0.229; glycan array binding signal (z-score) [37]: -0.056
